In all, about 33,000 sequences were measured (“E-score (-0.5 to 0.5)”: median about -0.0059, highest 2% from about 0.26 on). The list shows a part of the results.
target: T1, Cin5 (UniProt P40917); test: PBM E-score (8-mer binding enrichment) (E-score (-0.5 to 0.5)); higher = stronger / more preferred TF binding; details: protein concentration: 100 nM; construct: GST-full length
T1 sequence: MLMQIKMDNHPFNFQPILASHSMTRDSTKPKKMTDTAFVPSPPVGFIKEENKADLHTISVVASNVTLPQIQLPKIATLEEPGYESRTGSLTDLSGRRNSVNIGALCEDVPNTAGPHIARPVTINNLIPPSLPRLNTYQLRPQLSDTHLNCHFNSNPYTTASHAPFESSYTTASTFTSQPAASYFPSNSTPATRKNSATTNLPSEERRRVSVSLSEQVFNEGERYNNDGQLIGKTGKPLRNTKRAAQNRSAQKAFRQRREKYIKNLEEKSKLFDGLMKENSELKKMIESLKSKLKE
Procedure: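 Universal 'all 10-mer' protein binding microarrays (Agilent AMADID 015681) probed with GST-tagged S. cerevisiae TFs (full-length or DBD) made by in vitro transcription/translation (PURExpress), about 100-200 nM. Bound TF was detected with fluorescent anti-GST. Each ungapped 8-mer (which stands for itself and its reverse complement) is scored by the PBM enrichment score (E-score), a modified Wilcoxon-Mann-Whitney statistic from -0.5 to +0.5, computed with the Universal PBM Analysis Suite. Scale: above 0.35 generally sequence-specific binding.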

Sequence | PBM E-score
CGCACCTA | -0.0996
AAACCGAT | 0.013
CAGCGGCC | -0.207
CGTTATAG | 0.0167
ATGTGGTG | 0.114
GCGGCTCA | 0.0752
TGAGAAAA | 0.129
GCACTGCC | -0.0335
CATTTCTC | 0.124
AACCCCCA | -0.447
AGAGTGAA | 0.0882
ACGACCAC | -0.103
AGAGGCGC | -0.168
ACGCCCCT | -0.216
GGCTAGAA | -0.107
CTAACAAG | -0.0036
ACGTTCCT | -0.0798
GGAATACA | 0.0766
ACCAAGAG | -0.106
CGGCGCCC | -0.201
GAGCTCAA | -0.038
CGGCTCTC | -0.164
ATCGGGGA | 0.102
AGCGGATA | -0.0233
CTTTGGGA | -0.161

Sequence | PBM E-score
CTGTACAG | -0.209
AGGATCCT | -0.134
CCCCACAA | 0.0961
ACATTACG | 0.184
ATGCTTGC | -0.141
CGAAGCTA | -0.03
GCAACAAA | 0.214
CCGACAGA | 0.0622
CGCCTCTA | -0.0444
CGGATTCC | 0.0891
AGGTAACC | -0.051
ACACCAAA | 0.14
GCACGTGC | 0.0222
GCTGGAAC | -0.108
CGTCACGC | -0.0596
AAAACAAA | 0.0866
GCATTTAC | 0.0129
AATAGTTG | 0.238
CCCGATCC | -0.123
CAGAGGTC | -0.0986
GAGGGCGA | -0.309
CTGATTCC | 0.0671
AAGCACGA | 0.126
CACGCCAC | -0.104
AGCCCACC | -0.157

Taken from above:
In PBM E-score, AACCCCCA is entered as -0.447
In PBM E-score, CCGACAGA is entered as 0.0622

(listing goes on)

Sequence | PBM E-score
GGGAAAAA | 0.0697
ACATTGAT | 0.152
AGTTGCCC | 0.0814
AAGGCAAG | -0.12
AGGAAGTC | -0.166
AAGTCAGT | 0.128
AGTAGATA | 0.306
AGTAATGA | 0.13
CGCGCCTC | -0.00598
GCCCGACC | -0.194
CGAGGAGA | -0.233
ATCTGTGC | 0.0862
ACAGCGCG | -0.0181
GATCATGC | -0.102
ACCTCGAC | -0.133
CTAGGGTA | -0.193
GTTCCAAA | 0.0443
ATTCTATC | 0.14
AGGACACC | -0.0654
AATAGCAG | -0.0538
AATCGGTG | -0.0213
GGCATATA | 0.253
ACCGCTGA | 0.0928
AATAAACA | 0.216
AGGTGGGA | -0.159

A second format for some results above:
Sequence	PBM E-score
ACGACCAC	-0.103
AGAGGCGC	-0.168
ACGCCCCT	-0.216
GGCTAGAA	-0.107

Later entries.

Sequence | PBM E-score
AATGGGAG | -0.0691
ACGTTGTG | -0.0946
CGGCGACA | -0.0141
ACGTCTCC | 0.0534
GAGAAATC | 0.103
GACTCCGA | -0.0498
CCAAACGC | -0.0595
TGGGTAAA | -0.178
TAAAAACA | 0.174
GCACAGCC | -0.159
ACCCGATG | 0.153
GCCGACAA | -0.0412
ATCTTTGA | 0.0934
CTTCAGCA | -0.0197
GTCTTGAA | 0.0184
AAGACTAG | -0.305
AAGCCCGT | -0.238
ACACCAGA | 0.0596
AAACGTTA | -0.00091
CCAAGGGC | -0.292
CGGAACCG | 0.00785
CGTAACCA | 0.192
CCTTCCCC | -0.204
CGCATGTC | -0.0838
GATACATA | 0.235

Sequence | PBM E-score
AATGGGAT | -0.0064
CACGAGAG | -0.0839
GACCTGAA | 0.0203
CTAATCTC | 0.0871
TCAGCTAA | 0.0484
AGAACAAA | 0.194
CGCGCGAG | 0.108
CAGCTAGC | -0.0954
AAAGTGGG | 0.155
AATTATAT | 0.229
AATGGACT | -0.0199
CTGACTGA | -0.0768
CGATCTCC | -0.109
TTTAGAAA | -0.0273
CGGTTTAC | -0.198
GCTCTATA | -0.0373
AGTCCTGA | -0.087
GTTAGTCA | 0.0867
ACTGCACC | -0.0266
CACGCAAG | 0.0305
CGGGGACA | -0.102
ATGATGGG | 0.0496
ACGAGACG | -0.0766
GTTTGCCA | 0.0942
AAACCCAT | 0.244

Sequence | PBM E-score
AGTGCCGG | -0.0939
AACCGTGT | 0.116
ATAGCAAG | 0.216
CACTAAGC | 0.0901
AGCTTGAT | -0.00094
GCGTCAAC | -0.147
CTTAAGAC | -0.122
ATGCGCTA | 0.0341
CCGCGTAA | -0.051
CATTGAGC | -0.135
TAGTCAAA | 0.0952
TTACGGAA | 0.253
CGATCTTA | 0.0787
ACGGTCCT | -0.255
CGAAGAGC | -0.0553
CAACTCAA | 0.192
AACGATAT | 0.285
CGATGCGC | 0.0485
CGTAAAAG | 0.0338
CTGAGGCA | -0.221
AAAATCGA | 0.0621
GCGTCTGA | 0.0418
AAAATCCG | -0.0456
ATACTATA | 0.217
ACTGTCCA | -0.177

Sequence | PBM E-score
CCAAGACG | -0.123
CTTGTCGA | -0.187
AGCTGGTC | -0.217
AACCTATA | 0.135
CGTCTAAG | 0.0276
GTTGTCTA | 0.114
ATCGACAG | 0.0639
CACACAGA | 0.0436
AGCCTAAG | -0.258
TATCGATA | 0.0449
ACCTGGAT | -0.172
GGAGTAGA | 0.0669
ACGCGTAT | 0.184
AGCCCGAC | -0.197
ACCTATCT | 0.121
ACTGTTTC | -0.0226
GACCCCTA | -0.163
GATCGAGC | 0.019
CCCACGTC | -0.0571
CTTGCACA | -0.0377
GACAAAGC | -0.031
AATGAGGG | 0.0243
